Measurements from article PMC2225441, “Partial Restoration of Mutant Enzyme Homeostasis in Three Distinct Lysosomal Storage Disease Cell Lines by Altering Calcium Homeostasis” (PLoS Biology, 2008).

Tested on: L444P GC
Assay: intact cell GC activity assay in homozygous L444P GC patient-derived fibroblasts
Type: cell-based, human
Settings: only the named compounds increased activity

SMILES: C(=C\c1ccccc1)/CN1CCN(C(c2ccccc2)c2ccccc2)CC1 [cinnarizine]
- L444P GC activity, screen of VGCC blockers, ionotropic glutamate receptor inhibitors and other calcium channel blockers: only diltiazem and verapamil
